## Screening data

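Luminescence from an EWS-FLI1 target-promoter (NR0B1) reporter, set against a CMV-promoter reporter, two days after silencing single genes in TC32 Ewing sarcoma cells. Each siRNA was applied at 20 nM. A z-score of the log NR0B1-over-CMV signal, less the median of siRNAs with the same seed; more negative means a stronger specific loss of the NR0B1 reporter.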

The strongest results of the screen are mostly left out here. Sequences are the guide (antisense) strand, without overhang.

Sequence	target gene	seed-corrected z-score
UGACUGGUGAAUAACAUUG	STPG1	-1.114
UGAGAGGAAACAGCAGUGC	SBF1	-1.448
UUCCUAUCCACGUUGUGCG	TGM7	0.7187
AUCUUUUCCCGGUUGAUCU	ACTBL2	-0.006869
UUUACAAACUAUGUCAUCU	GAR1	0.05871
UUUUCGUCCAAAAAUGACG	DKK4	1.693
AUGGUUUCAGGGAAAGAGG	C17orf50	0.07856
UUGAGGAUGACUUAAAAGC	ZNF676	-0.0381
UAUGGUUCAUUCAAGAAAC	CLC	-0.9009
UUGAUGGAAACGAAGUUUU	ZNF284	0.3309
UUCAUCGAAGUCUUCAUCC	CHD3	1.126
UUCAUAUCUUGGGAUAGGG	SPATA31D5P	-0.9258
AAAAAGACUAGAGACAGUA	SEC11B	0.8934
UUUGUAAGUAAGCAAUGCG	PCDHA10	0.1984
UAUUGGUGCUCUCCAAUUC	POLR2B	-0.1982
UAUUCGUAAAGCAUACAAG	SLC22A23	0.4037
UUGUCGAUGACAAGGCUGC	PDLIM1	-0.02028
UUUGACACCCGUAUCAUCU	SPRYD4	0.2442
UCGUUCAUAAGGACCAUUC	FAH	0.06456
UCUCAUAGAAAUCACGUCG	FAM172A	-0.3214
AUCUAAUAAGUUGAUAUCC	XPO1	-1.152
UUCAGGUCCAAGGUAAAGC	MPL	-1.065
UGUAUUGCCUUGUCGAAUC	RDX	0.4066
UGAUUUCCGAUGCAAAGCC	BCKDHB	-0.2202
UCCACAAUAUGAAAGAUCC	MRPS28	-0.108
AACAUGCUUCGGAAUAGCC	PAK6	-0.3683
UUCUGGUUGUAUUCGGUCC	ARHGEF38	-0.7185
AAGGGUUCGCUGUAGAGGC	MAP6	-0.04199
UCUUCUGUAACUCAUGCUG	TBKBP1	-0.3229
UCGGGUCUAUCUCCAGUGC	KRT82	0.3913
UAUGUUUAUUCUGCGAGUC	ISOC2	-0.1329
UUCUUGAAUACCGUAGUCC	TRAPPC6B	0.6308
UGUUCGAACAUGGAGAACA	MYL2	0.2588
UGAUCAUCCAUCUUCAUGG	MPV17L2	-1.238
AAUGGUAUCGAAGACCUGC	WIPI2	-0.5246
UUCAAUGAAAUCGAGAUUC	SERPINB1	-0.2904
UCCGGUUAAACUGAGGUGG	CASC3	-0.6457
UCUGUACGUGUUGAGGCCG	LACTBL1	1.266
UCUUGGAAAAGCAGUGGAG	DBX2	1.409
UUGGUUGUGACUCUUCUGG	APBB2	0.01975
UCGUGAAUGAGAAGAGUGC	ATP1B3	-0.05543
UUAAGAGAUUCGUAUCUUU	RPL29P12	0.3903
UCUAUUGGUAUAUAGACUC	STAG1	1.365
UUGGUGACAAUGGAGAACG	CAMK2B	-0.8441
UUUUCACAUACCAAUUACC	DEFB126	-0.0248
UUGCGGUUGAUGAGGAUGC	PPP6R1	-0.7431
UGUAGUAACCGUUGGUUGG	KIRREL2	0.423
UAUUGUUCAUGGUGCCGCG	ASCL5	0.4237
UUCUCGUACACGUCGAUCU	PCYOX1L	-0.5528

Once more, the final 3:

{"sequence": "UGUAGUAACCGUUGGUUGG", "target gene": "KIRREL2", "seed-corrected z-score": "0.423"}
{"sequence": "UAUUGUUCAUGGUGCCGCG", "target gene": "ASCL5", "seed-corrected z-score": "0.4237"}
{"sequence": "UUCUCGUACACGUCGAUCU", "target gene": "PCYOX1L", "seed-corrected z-score": "-0.5528"}

The results are deposited in PubChem (AID1159506; NCATS, 2015).